# The supplement of paper PMC3334620
# Whole data set: some 33,000 sequences, median “E-score (-0.5 to 0.5)” near -0.016, cut for the highest 2% near 0.3. Some of the results follow.
# Target: T1, Yer184c (UniProt P39961)
# T1 sequence: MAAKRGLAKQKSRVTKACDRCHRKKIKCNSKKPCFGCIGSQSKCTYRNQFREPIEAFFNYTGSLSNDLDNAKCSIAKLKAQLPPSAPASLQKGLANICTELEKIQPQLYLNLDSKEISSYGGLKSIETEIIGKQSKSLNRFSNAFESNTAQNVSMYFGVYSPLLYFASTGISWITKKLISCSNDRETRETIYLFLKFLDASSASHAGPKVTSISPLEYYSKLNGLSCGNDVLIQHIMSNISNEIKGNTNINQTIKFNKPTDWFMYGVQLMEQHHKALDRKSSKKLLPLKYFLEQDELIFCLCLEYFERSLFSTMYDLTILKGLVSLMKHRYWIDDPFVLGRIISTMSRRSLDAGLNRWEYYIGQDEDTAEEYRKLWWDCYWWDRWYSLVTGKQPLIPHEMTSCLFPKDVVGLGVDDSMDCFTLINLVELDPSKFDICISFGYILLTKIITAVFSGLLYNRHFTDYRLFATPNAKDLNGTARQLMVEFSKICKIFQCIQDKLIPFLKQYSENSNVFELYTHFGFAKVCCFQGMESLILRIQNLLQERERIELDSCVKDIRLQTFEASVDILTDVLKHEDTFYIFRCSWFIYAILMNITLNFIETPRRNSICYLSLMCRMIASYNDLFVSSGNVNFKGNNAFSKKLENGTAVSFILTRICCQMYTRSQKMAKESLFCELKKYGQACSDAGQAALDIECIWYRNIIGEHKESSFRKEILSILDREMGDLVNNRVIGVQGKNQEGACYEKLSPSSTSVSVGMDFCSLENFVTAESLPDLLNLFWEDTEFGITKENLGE
# Test: PBM E-score (8-mer binding enrichment) (E-score (-0.5 to 0.5)); higher = stronger / more preferred TF binding
# Conditions: protein concentration: 100 nM; construct: GST-full length
# Description: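 Universal 'all 10-mer' protein binding microarrays (Agilent AMADID 015681) probed with GST-tagged S. cerevisiae TFs (full-length or DBD) made by in vitro transcription/translation (PURExpress), about 100-200 nM. Bound TF was detected with fluorescent anti-GST. Each ungapped 8-mer (which stands for itself and its reverse complement) is scored by the PBM enrichment score (E-score), a modified Wilcoxon-Mann-Whitney statistic from -0.5 to +0.5, computed with the Universal PBM Analysis Suite. Scale: above 0.35 generally sequence-specific binding.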
row,Sequence,PBM E-score
1,CCAGGAAG,-0.164
2,GCTAGTAC,-0.085
3,AATGCGTC,-0.141
4,CGGCTACC,0.23
5,CTGGCTCC,-0.183
6,AGAGCCTC,-0.312
7,ACGGGAAG,-0.024
8,GTTCCTTA,0.112
9,CAGAGTAA,-0.0236
10,CAGAGATA,-0.0588
11,ACAGCCAT,-0.184
12,AGTTCGAT,-0.0396
13,AATGGGGG,-0.347
14,AAGAAAGC,-0.0333
15,AACTCCGT,0.222
16,AGGCAACT,0.0699
17,TATCCTCA,-0.0278
18,AAGGGACC,-0.0161
19,AACGAAAT,0.248
20,ACAACACA,0.111
21,CAACCGAA,0.258
22,ACGGTAAG,-0.00751
23,GCGGGTAC,-0.0776
24,AGAATGGC,0.0242
25,CAGGGCAC,-0.172

row,Sequence,PBM E-score
1,GCAGTACC,0.0091
2,ATCTGTAG,-0.0935
3,TACACGGA,0.302
4,GCCACAGC,-0.186
5,AACTCAAA,0.0718
6,AAGCGACG,-0.0516
7,CGTAAGCC,0.0257
8,GTAGGTGA,-0.135
9,TCAGATGA,0.0923
10,AGTAATAG,-0.00505
11,CGATGGCC,-0.00914
12,CTCGACTA,-0.1
13,AGGGGCCA,-0.217
14,CCGGTAAG,0.369
15,TAACGCGA,-0.0896
16,GCGCTCTA,-0.0288
17,GATCGCGA,0.186
18,CTGTACAA,0.145
19,TACGGAGA,0.153
20,TGACGAAA,0.102
21,TATCTAAA,0.0877
22,AGATTGTA,-0.0525
23,AAAAAGCC,0.289
24,GGTTTCGA,0.00891
25,ATGGGGAG,-0.226

row,Sequence,PBM E-score
1,CGACATAG,-0.172
2,TGGCATAA,0.139
3,CGTACGCA,-0.103
4,TCCTGCAA,-0.0596
5,GGGGCGAC,-0.173
6,TGACTGCA,-0.283
7,CTGGAGAC,-0.098
8,AAAGGACG,0.0579
9,AAAAATTG,0.107
10,CGCCATAC,0.0267
11,AGTTTTAT,0.21
12,CCGAAGTA,0.25
13,TAGAAGAA,0.0399
14,AATCAACT,0.0941
15,CAAATAAC,0.135
16,AACCATTC,-0.0758
17,CGTTCTTA,0.0844
18,CAATGCCA,-0.117
19,ACATCGCC,-0.0957
20,AAAACGTC,0.0634
21,CACATCGC,-0.157
22,AGGCCCGC,0.0405
23,AAAGCCAC,-0.00701
24,TATGTACA,-0.0329
25,GTCAAAAC,0.19

row,Sequence,PBM E-score
1,GATAGTAA,0.0357
2,CCCACTAG,-0.364
3,GTGAGCTA,-0.15
4,TGCATCAA,0.0626
5,GGCGCATA,-0.0303
6,ATATAAAG,0.0639
7,CAAGACCG,0.0414
8,ACTGCCTC,-0.229
9,CATGAGAC,-0.0666
10,CTCTGAAG,-0.164
11,ATCATCCA,-0.131
12,TGGCCTAA,-0.147
13,AACCGTCT,-0.0225
14,CTATTAAG,-0.0949
15,AGCCGCCA,-0.203
16,TCACGGAA,0.341
17,AAGCATCC,-0.118
18,CGGGCTCA,-0.053
19,TATCAATA,0.178
20,AACCACAC,-0.0444
21,ATTGGAAA,0.156
22,AGTAAAAT,0.161
23,GCCTAACA,0.0992
24,GTACCTTA,0.0404
25,CAATGCAA,0.0267

row,Sequence,PBM E-score
1,CGGAGACC,0.0297
2,CTGACAGA,0.0329
3,CACTGGCG,-0.136
4,GGGCCTAC,-0.197
5,ATGTCCCG,0.0328
6,GCACCACC,-0.201
7,CCTACAAA,0.137
8,ACTGTGCT,-0.0518
9,ACCCGAGA,0.195
10,CGGTGAGA,0.188
11,AGACCCGG,0.198
12,CAATACAC,0.135
13,GACGACAA,0.166
14,AAACGCTA,-0.164
15,GTGTTACA,0.0194
16,AGGCGATA,-0.12
17,GCCGTAGC,0.045
18,CGTCAGAG,-0.162
19,AAGTAAAA,0.0973
20,AATCCAAG,-0.0619
21,TCCGGACA,0.431
22,TACCTATA,-0.0891
23,GTTTAATA,0.155
24,ACTGACTA,-0.132
25,AAGCCGAA,0.389

# Not a retest: entries from further up.
row,Sequence,PBM E-score
21,CACATCGC,-0.157
22,AGGCCCGC,0.0405
23,AAAGCCAC,-0.00701
24,TATGTACA,-0.0329
25,GTCAAAAC,0.19
1,GATAGTAA,0.0357
2,CCCACTAG,-0.364
3,GTGAGCTA,-0.15
4,TGCATCAA,0.0626
5,GGCGCATA,-0.0303
6,ATATAAAG,0.0639
7,CAAGACCG,0.0414
8,ACTGCCTC,-0.229
9,CATGAGAC,-0.0666
10,CTCTGAAG,-0.164
11,ATCATCCA,-0.131
12,TGGCCTAA,-0.147
13,AACCGTCT,-0.0225
14,CTATTAAG,-0.0949
15,AGCCGCCA,-0.203
16,TCACGGAA,0.341
17,AAGCATCC,-0.118
18,CGGGCTCA,-0.053
19,TATCAATA,0.178
20,AACCACAC,-0.0444
21,ATTGGAAA,0.156
22,AGTAAAAT,0.161
23,GCCTAACA,0.0992
24,GTACCTTA,0.0404
25,CAATGCAA,0.0267
1,CGGAGACC,0.0297
2,CTGACAGA,0.0329
3,CACTGGCG,-0.136
4,GGGCCTAC,-0.197
5,ATGTCCCG,0.0328
6,GCACCACC,-0.201
7,CCTACAAA,0.137
8,ACTGTGCT,-0.0518
9,ACCCGAGA,0.195
10,CGGTGAGA,0.188
11,AGACCCGG,0.198
12,CAATACAC,0.135
13,GACGACAA,0.166
14,AAACGCTA,-0.164
15,GTGTTACA,0.0194
16,AGGCGATA,-0.12
17,GCCGTAGC,0.045
18,CGTCAGAG,-0.162
19,AAGTAAAA,0.0973
20,AATCCAAG,-0.0619
21,TCCGGACA,0.431
22,TACCTATA,-0.0891
23,GTTTAATA,0.155

# Going on with the list:

row,Sequence,PBM E-score
1,ACCTCTAT,0.0127
2,CGCCGCCA,0.0955
3,CCGTACCC,0.0339
4,AAAACCTA,0.0965
5,CAAATGTG,0.173
6,AGGGAGAT,-0.264
7,AAGTGAAC,-0.118
8,ACAAAAGC,0.155
9,GTGCTCCA,-0.164
10,ATGATACC,0.177
11,AACGCTGC,-0.0934
12,GCTCGTAA,-0.0998
13,GCCACTAA,-0.138
14,ACTCGGCA,0.299
15,GCACACAA,0.072
16,AAGTGTCA,-0.293
17,ACGTAAGA,0.0481
18,TAATTCAA,0.2
19,GACTCGAA,-0.0931
20,CTGTCGCC,-0.124
21,GCGAGTCC,-0.144
22,ATCGGGCC,0.00051
23,GAGCTCTA,-0.0976
24,CGCCTGGA,-0.144
25,AATCAACA,0.22

row,Sequence,PBM E-score
1,CTTGAGCC,-0.156
2,ATAGGCAT,-0.124
3,CTGTCAAA,0.0616
4,GTCACACA,-0.161
5,ACTACTAT,0.229
6,GATGGCGC,-0.182
7,CGTGGATC,-0.29
8,GGCAATAC,0.19
9,CGAGACCG,0.156
10,GCCTTCGA,-0.137
11,CCATCCCG,-0.106
12,AAAAGATA,0.169
13,CTTATCCA,0.0531
14,ACCATGGC,0.127
15,AACTCCTG,-0.224
16,TATCTCAA,0.168
17,AACCGATA,0.138
18,GATTTGCA,0.133
19,CTTCATAC,0.0285
20,ATCAACAC,0.0913
21,ACATCTAG,-0.0165
22,TCTAGACA,0.0416
